Reference: paper PMC11445578
These are yes or no findings as the source states them, for the method shown. In cells and extracts the contact can be indirect. Some entries that bind do so weakly or less than the wild type. Values belong to the substance of their own block, whether it stands above or below them.

Chains of the proteins cited; added tags and fusions are not shown.
UniProt Q9Y5K6: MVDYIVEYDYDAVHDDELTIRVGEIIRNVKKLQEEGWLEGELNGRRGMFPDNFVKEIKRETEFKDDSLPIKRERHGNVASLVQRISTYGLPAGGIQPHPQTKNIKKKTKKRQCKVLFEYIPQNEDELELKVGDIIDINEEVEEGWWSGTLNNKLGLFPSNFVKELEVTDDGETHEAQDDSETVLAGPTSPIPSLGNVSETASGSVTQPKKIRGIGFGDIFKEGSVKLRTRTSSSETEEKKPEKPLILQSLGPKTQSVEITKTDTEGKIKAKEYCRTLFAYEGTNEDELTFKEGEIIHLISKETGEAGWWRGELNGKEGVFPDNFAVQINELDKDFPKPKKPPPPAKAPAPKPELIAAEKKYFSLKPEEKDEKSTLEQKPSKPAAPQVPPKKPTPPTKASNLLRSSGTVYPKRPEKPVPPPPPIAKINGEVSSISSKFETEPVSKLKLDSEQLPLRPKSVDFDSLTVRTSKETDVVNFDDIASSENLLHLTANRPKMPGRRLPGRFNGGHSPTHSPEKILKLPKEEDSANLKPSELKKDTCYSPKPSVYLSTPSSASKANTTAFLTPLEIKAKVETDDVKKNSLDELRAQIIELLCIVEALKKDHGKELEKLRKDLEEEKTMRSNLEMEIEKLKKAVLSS
UniProt Q9C035: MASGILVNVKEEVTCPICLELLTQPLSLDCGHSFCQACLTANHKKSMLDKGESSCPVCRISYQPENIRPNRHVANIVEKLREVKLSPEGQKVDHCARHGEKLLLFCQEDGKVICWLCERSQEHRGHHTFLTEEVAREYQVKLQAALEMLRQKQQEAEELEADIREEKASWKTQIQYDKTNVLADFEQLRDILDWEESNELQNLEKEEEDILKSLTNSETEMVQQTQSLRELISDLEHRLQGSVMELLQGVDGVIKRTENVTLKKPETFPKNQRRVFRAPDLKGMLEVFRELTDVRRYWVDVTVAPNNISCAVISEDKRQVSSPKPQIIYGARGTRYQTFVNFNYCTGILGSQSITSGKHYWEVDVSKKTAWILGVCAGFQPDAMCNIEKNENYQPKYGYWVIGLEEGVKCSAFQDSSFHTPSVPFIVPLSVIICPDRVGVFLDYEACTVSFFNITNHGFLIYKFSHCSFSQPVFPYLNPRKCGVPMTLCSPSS

Assays:
[1] = molecular target: CD2AP co-expressed in HEK 293T cells (human) (UniProt Q9Y5K6); assay: co-IP; CD2AP and TRIM5 co-expressed in HEK 293T cells; lysates incubated with primary antibodies and protein A/G MagBeads at 4 °C overnight, western blot
[2] = molecular target: CD2AP fused with the C-terminal fragment of Venus (human) (UniProt Q9Y5K6); assay: split reporter; Venus BiFC in HEK293T cells transfected with TRIM5-VN and/or CD2AP-VC; fluorescence observed by microscopy
[3] = molecular target: CD2-associated protein (CD2AP), endogenous (human (endogenous in U87MG and U251)) (UniProt Q9Y5K6); assay: co-IP; endogenous proteins in U87MG and U251 cell lysates; primary antibodies and protein A/G MagBeads at 4 °C overnight, immunoblotted with anti-CD2AP and anti-TRIM5 antibodies

binding [1]: binds
Substance: TRIM5 co-expressed in HEK 293T cells (from UniProt Q9C035 1-493)

binding [2]: binds
Substance: TRIM5 fused with the N-terminal fragment of Venus (from UniProt Q9C035 1-493)

binding [3]: binds
Substance: TRIM5, endogenous (from UniProt Q9C035 1-493)
